Two sequences from publication PMC6547440, “The HRP3 PWWP domain recognizes the minor groove of double-stranded DNA and recruits HRP3 to chromatin” (Nucleic Acids Research, 2019) can be followed below.

Amino acid sequences for entries named in this document (tags omitted). Residues count along the entry.
UniProt Q9Y3E1, 1-110 K77A: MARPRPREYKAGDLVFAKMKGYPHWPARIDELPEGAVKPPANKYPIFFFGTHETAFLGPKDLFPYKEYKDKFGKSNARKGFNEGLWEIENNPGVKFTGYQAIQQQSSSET
UniProt Q9Y3E1, 1-110 R78A: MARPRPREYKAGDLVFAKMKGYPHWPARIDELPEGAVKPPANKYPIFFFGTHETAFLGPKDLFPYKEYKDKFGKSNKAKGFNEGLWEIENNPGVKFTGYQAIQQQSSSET
UniProt Q9Y3E1, 1-110 K18A: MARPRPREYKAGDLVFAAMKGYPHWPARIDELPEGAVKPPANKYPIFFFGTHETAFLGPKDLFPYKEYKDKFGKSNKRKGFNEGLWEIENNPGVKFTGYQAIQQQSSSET
UniProt Q9Y3E1, 1-110 N76A: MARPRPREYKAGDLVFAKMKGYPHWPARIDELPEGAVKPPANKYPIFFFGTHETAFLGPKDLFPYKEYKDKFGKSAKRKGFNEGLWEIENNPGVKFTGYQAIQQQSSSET
UniProt Q9Y3E1, 1-110: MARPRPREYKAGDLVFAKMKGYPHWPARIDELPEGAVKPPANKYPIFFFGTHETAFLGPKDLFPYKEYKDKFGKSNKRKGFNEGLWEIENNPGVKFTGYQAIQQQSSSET

For at least one entry, the source does not settle the construct or the ends of the probe. For part of these data: The comparison behind a weaker result is the experiment's own reference, which may not be listed here. At least one verdict rests on a figure or table, not on a statement of the authors.

Series [1] concerns the target HRP3 PWWP K77 mutant K77A (UniProt Q9Y3E1). As to the kind of experiment: MST. The note with it: MST: 50 mM KCl, 10 mM Na cacodylate pH 6.5, 2 mM DTT, 200 nM FAM-dsDNA, recombinant protein, residues 1-110, label: 5'-FAM (MST).
Series [2] has as its target HRP3 PWWP R78 mutant R78A (UniProt Q9Y3E1). The experiment in a line: MST. Particulars: MST: 50 mM KCl, 10 mM Na cacodylate pH 6.5, 2 mM DTT, 200 nM FAM-dsDNA, recombinant protein, residues 1-110, label: 5'-FAM (MST).
Series [3] addresses HRP3 PWWP K18A (UniProt Q9Y3E1). The experiment in a line: MST. The note with it: MST: 50 mM KCl, 10 mM Na cacodylate pH 6.5, 2 mM DTT, 200 nM FAM-dsDNA, recombinant protein, residues 1-110, label: 5'-FAM (MST).
Series [4] deals with HRP3 PWWP N76A (UniProt Q9Y3E1). As to the kind of experiment: MST. Particulars: affinity unchanged vs WT; MST: 50 mM KCl, 10 mM Na cacodylate pH 6.5, 2 mM DTT, 200 nM FAM-dsDNA; recombinant protein; residues 1-110; label: 5'-FAM (MST).
For series [5], the target named is HRP3 PWWP (1-110) WT (UniProt Q9Y3E1). The experiment in a line: ITC. The note with it: value in figure only, ITC: 10 mM PBS pH 7.0, 50 mM NaCl, 2 mM b-ME, 20 C, recombinant protein, residues 1-110, label: 5'-FAM (MST).

On to “GCGCGCGCGCGCGCGC (double strand) [16-mer-GC]”, for which the binding result was “binds” in series [1] (affinity unchanged vs WT); “binds” in series [2] (affinity unchanged vs WT); “binds” in series [3] (affinity unchanged vs WT); “binds” in series [4]; “binds more weakly” in series [5] (weaker than 16-mer-TA).
For the sequence “TATATATATATATATA (double strand) [16-mer-TA]”, the binding result was “binds more weakly” in series [1], “binds more weakly” in series [2], “binds more weakly” in series [3] and “binds” in series [5] (TA preferred).
